PubChem BioAssay AID686943 – Drosophila RNAi Screening Center, 2013

Screen: 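Search across the genome for regulators of signalling from receptor tyrosine kinase to ERK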 (primary screen)
Cells: Drosophila S2R+ haemocyte-like cells expressing YFP-tagged ERK (Rolled)
Reagents: long dsRNA against Drosophila genes
Challenge: insulin stimulation versus unstimulated cells; dose and duration not given
Read-out: 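Antibody staining for doubly phosphorylated ERK divided by ERK-YFP signal, as plate z-scores, in insulin-treated and untreated cells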
Scale: replicate 1, z-score of dpERK with insulin and replicate 2, z-score of dpERK with insulin: higher = more active ERK per ERK-YFP after insulin
The screen tested about 23,000 reagents; this is a random part of those with a known target gene and a result. 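Extra replicates exist only for a retested subset of genes; insulin dose and duration not given; both raised and lowered dpERK matter.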 Names joined by + are all predicted targets of the reagent. Not all columns of the deposit are shown. Not given: the amount of reagent, the time to read-out.

The opening 5 entries, to show the layout:
no.	gene	dsRNA	replicate 1, z-score of dpERK with insulin	replicate 2, z-score of dpERK with insulin
1	CG33339	DRSC22917	0.49	0.74
2	btl	DRSC11331	1.88	0.08
3	rumpel	DRSC18436	-0.24	0.15
4	CG5541	DRSC19946	-0.2	-0.65
5	RpS20	DRSC16836	0.7	1.32

Results, from the first entry:
no.	gene	dsRNA	replicate 1, z-score of dpERK with insulin	replicate 2, z-score of dpERK with insulin
1	CG33339	DRSC22917	0.49	0.74
2	btl	DRSC11331	1.88	0.08
3	rumpel	DRSC18436	-0.24	0.15
4	CG5541	DRSC19946	-0.2	-0.65
5	RpS20	DRSC16836	0.7	1.32
6	CG5757	DRSC06951	0.11	0.08
7	rtet	DRSC14160	0.74	0.08
8	CG32695	DRSC17975	-0.16	-0.86
9	Cap-D3 + tomb	DRSC02347	-0.11	0.23
10	Sec23	DRSC12387	0.61	-0.24
11	CG33296	DRSC00998	-0.46	-0.18
12	emc	DRSC08715	-2.9	0
13	Cul2	DRSC03710	-0.02	-0.68
14	CG42826	DRSC10682	-0.65	0.68
15	CG5026	DRSC10470	0.2	0
16	CG32428	DRSC11697	-1.55	-2.65
17	CG32428	DRSC11768	0.5	0.27
18	CG13047	DRSC09928	0.33	0.15
19	LSm7	DRSC02251	1.71	0.75
20	jus	DRSC14861	-1.01	-4.1
21	jus	DRSC14862	2.52	-0.74
22	fln	DRSC11346	-0.09	0.23
23	Ama	DRSC12489	0.82	0.5
24	CG11322	DRSC02142	-0.31	0.74
25	CG14297	DRSC14776	0.43	-0.99
26	Lip2	DRSC02577	0.16	0.63
27	Lip2	DRSC02578	0.2	0.33
28	Eno	DRSC00750	0.76	1.49
29	RpS21	DRSC00833	-1.13	-2.28
30	CG14860	DRSC14983	1.08	0.28
31	PCNA2	DRSC02030	0.51	0.75
32	Hem	DRSC11865	-0.02	0.25
33	CG32755	DRSC18397	0.15	0.13
34	CG8854	DRSC07288	0.26	0.66
35	CG34393	DRSC00419	0.03	-0.03
36	CG34393	DRSC00710	-0.07	0.54
37	Lis-1	DRSC07459	0.7	-0.04
38	Cp36	DRSC18452	0.55	0.04
39	CG11398	DRSC18625	0.48	-0.37
40	CG31076	DRSC16017	0.29	0
41	Csas	DRSC22390	1.07	-0.44
42	CG5071	DRSC15710	1.11	0.14
43	CG5071	DRSC22570	-0.05	0.31
44	CG34436	DRSC15164	-0.17	-0.04
45	CG7791	DRSC04891	0.04	0.17
46	wdp	DRSC04367	0	-0.29
47	comt	DRSC20319	0.28	0.05
48	Nbr	DRSC03166	-0.23	-0.14
49	CG15443	DRSC00455	1.31	0.47
50	RpS30	DRSC15119	-1.15	-0.55
51	CG15472	DRSC18055	0.98	0.74
52	Cpr65Ec	DRSC11025	-0.84	-0.15
53	Map60	DRSC07464	0.53	-0.06
54	Roc1b + Cdc5	DRSC08687	0.24	0.07
55	cort	DRSC02148	-0.61	0.3
56	COX2 (retired record)	DRSC21276	0.05	0.02
57	Polr2E	DRSC06100	2.1	1.69
